Data as given in PubChem BioAssay AID602196 (INSERM, 2012)

Screen: 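Genes whose knock-down alters cisplatin killing of lung cancer cells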
Cell system: human A549 lung cancer cells
Reagent: siRNA pair against human genes
Time to read-out: 48 h transfection before cisplatin; time from cisplatin to read-out not stated
Treatment: cisplatin at a dose killing half of control-siRNA cells; exact dose and duration not given
Measurement: 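Cisplatin cell death as a shift from the 50% death seen with control siRNA; siRNAs toxic or growth-blocking alone scored 0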
Scale: two-siRNA summed score (-2 to +2): higher = both siRNAs protect from cisplatin killing; -2 means both sensitise
Rule for the call: 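Each siRNA scores 0 if harmful alone by LDH or WST-1, otherwise +1 if it reduces and -1 if it increases cisplatin killing; a gene is active when both siRNAs agree (sum +2 or -2)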
Calls: active = both siRNAs shift cisplatin killing the same way; inactive = no consistent shift, or siRNA harmful alone
The deposit covers about 23,000 reagents; this is an unselected part. 455 of them (2%) count as active. 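Active includes both protection and sensitisation; some change values fall well beyond the stated -50 to +50 range.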 Further read-outs or replicates are left out here. The record does not give: the amount of reagent.

| gene symbol | two-siRNA summed score (-2 to +2) | outcome |
| --- | --- | --- |
| ZBED3 | 0 | inactive |
| ZNF679 | 0 | inactive |
| JUNB | -1 | inactive |
| HEBP2 | 0 | inactive |
| CGAS | 0 | inactive |
| LOC401322 | 1 | inactive |
| CLRN1 | 0 | inactive |
| LOC400946 | 0 | inactive |
| BFSP1 | 0 | inactive |
| LOC400307 | 0 | inactive |
| LOC442522 | 1 | inactive |
| THOP1 | 0 | inactive |
| HERC6 | 0 | inactive |
| HSP90AA1 | -1 | inactive |
| KRTAP9-4 | 0 | inactive |
| CENPC | 0 | inactive |
| LOC440856 | 1 | inactive |
| CTF1 | 0 | inactive |
| LOC401530 | 0 | inactive |
| CLDN8 | 0 | inactive |
| TBCD | 0 | inactive |
| MRC2 | 0 | inactive |
| CCDC38 | 0 | inactive |
| NCF2 | -1 | inactive |
| IGHV3OR16-11 | 1 | inactive |
| JADE2 | 0 | inactive |

In a second layout: 10 of the entries above.
JUNB: two-siRNA summed score (-2 to +2) = -1; outcome = inactive
HEBP2: two-siRNA summed score (-2 to +2) = 0; outcome = inactive
CGAS: two-siRNA summed score (-2 to +2) = 0; outcome = inactive
LOC401322: two-siRNA summed score (-2 to +2) = 1; outcome = inactive
CLRN1: two-siRNA summed score (-2 to +2) = 0; outcome = inactive
LOC400946: two-siRNA summed score (-2 to +2) = 0; outcome = inactive
BFSP1: two-siRNA summed score (-2 to +2) = 0; outcome = inactive
LOC400307: two-siRNA summed score (-2 to +2) = 0; outcome = inactive
LOC442522: two-siRNA summed score (-2 to +2) = 1; outcome = inactive
THOP1: two-siRNA summed score (-2 to +2) = 0; outcome = inactive

The listing continues:
| gene symbol | two-siRNA summed score (-2 to +2) | outcome |
| --- | --- | --- |
| C1orf210 | 0 | inactive |
| LOC347475 | 0 | inactive |
| LOC401261 | 0 | inactive |
| NECTIN1 | 0 | inactive |
| MGAT4FP | 1 | inactive |
| TMEM106A | 0 | inactive |
| LIPI | 0 | inactive |
| LOC339025 | 1 | inactive |
| RPUSD4 | 0 | inactive |
| PCDHB15 | 0 | inactive |
| SCN11A | -1 | inactive |
| LOC440369 | 0 | inactive |
| FOXD1 | 0 | inactive |
| GJA3 | 0 | inactive |
| INKA1 | 0 | inactive |
| YBX2 | 0 | inactive |
| BLTP2 | 0 | inactive |
| KHDC4 | 0 | inactive |
| RCE1 | 0 | inactive |
| TRA2B | 0 | inactive |
| MS4A12 | 0 | inactive |
| KBTBD6 | 0 | inactive |
| HAVCR1 | 0 | inactive |
| STARD7 | 1 | inactive |
| CLDN5 | 0 | inactive |
| LOC441103 | 0 | inactive |
| LOC401725 | 0 | inactive |
| FLRT2 | 0 | inactive |
| DHX40 | 0 | inactive |
| RNF111 | 0 | inactive |
| GDF10 | 0 | inactive |
| ASMTL-AS1 | 0 | inactive |
| H2AC25 | 0 | inactive |
| OR1S2 | 0 | inactive |
| LOC387753 | 0 | inactive |
| RFC5 | 0 | inactive |
| ZC3H8 | 0 | inactive |
| SLCO1B3 | 0 | inactive |
| KCTD11 | 0 | inactive |
| EEF1A1P47 | 1 | inactive |
| HTR3E | -1 | inactive |
| CDC14A | 0 | inactive |
| KAT6A | 0 | inactive |
| LOC441220 | 0 | inactive |
| ADGRG2 | 0 | inactive |
| MGMT | -1 | inactive |
| LOC441041 | 0 | inactive |
